Values of other authors, collected in patent US9114109B2, “Five-coordinate neuroglobin and use thereof as a blood substitute” (University of Pittsburgh—Of the Commonwealth System of …, priority 2009, dated 2015).
Read-outs that look alike come from different tables or passages of the source.

Conditions: cited from earlier work

B1: neuroglobin: heme containing, monomeric, 16.9 kDa protein; literature values of the background section (protein, listed as Homo sapiens)
chain: MERPEPELIRQSWRAVSRSPLEHGTVLFARLFALEPDLLPLFQYNCRQFSSPEDCLSSPEFLDHIRKVMLVIDAAVTNVEDLSSLEEYLASLGRKHRAVGVKLSSFSTVGESLLYMLEKCLGPAFTPATRAAWSQLYGAVVQAMSRGWDGE
For B1, the “distal histidine binding affinity to heme iron KHis (kon/koff, dimensionless)” value (after disulfide bond formation) is given as 280 and the “distal histidine binding affinity to heme iron KHis (kon/koff, dimensionless)” value (before disulfide bond formation) is given as roughly 3000.
